We go through 38 targets from the supplement of paper PMC11006884.

Amino acid sequences for entries named in this document (tags omitted). A change or cut given only in a name is not applied to a line headed by its entry.
UniProt O15226: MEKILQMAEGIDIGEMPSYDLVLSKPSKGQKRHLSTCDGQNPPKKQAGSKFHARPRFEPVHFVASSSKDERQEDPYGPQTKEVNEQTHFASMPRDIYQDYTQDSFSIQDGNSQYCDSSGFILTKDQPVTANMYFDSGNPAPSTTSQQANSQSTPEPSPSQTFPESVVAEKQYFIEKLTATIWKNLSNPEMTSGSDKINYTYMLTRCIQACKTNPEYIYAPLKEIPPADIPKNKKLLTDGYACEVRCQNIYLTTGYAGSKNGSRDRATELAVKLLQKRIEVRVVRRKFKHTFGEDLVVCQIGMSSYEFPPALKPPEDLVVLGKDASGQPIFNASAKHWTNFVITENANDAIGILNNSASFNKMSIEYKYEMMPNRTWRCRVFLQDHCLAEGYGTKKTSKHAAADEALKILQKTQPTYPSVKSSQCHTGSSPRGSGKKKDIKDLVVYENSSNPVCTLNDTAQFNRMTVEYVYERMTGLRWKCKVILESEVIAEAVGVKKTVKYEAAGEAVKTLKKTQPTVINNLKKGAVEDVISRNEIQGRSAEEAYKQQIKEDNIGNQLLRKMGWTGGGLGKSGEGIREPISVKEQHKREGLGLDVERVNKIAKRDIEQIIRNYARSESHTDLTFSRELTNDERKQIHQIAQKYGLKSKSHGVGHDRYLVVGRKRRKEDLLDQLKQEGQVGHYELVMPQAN
UniProt O00303, whole entry: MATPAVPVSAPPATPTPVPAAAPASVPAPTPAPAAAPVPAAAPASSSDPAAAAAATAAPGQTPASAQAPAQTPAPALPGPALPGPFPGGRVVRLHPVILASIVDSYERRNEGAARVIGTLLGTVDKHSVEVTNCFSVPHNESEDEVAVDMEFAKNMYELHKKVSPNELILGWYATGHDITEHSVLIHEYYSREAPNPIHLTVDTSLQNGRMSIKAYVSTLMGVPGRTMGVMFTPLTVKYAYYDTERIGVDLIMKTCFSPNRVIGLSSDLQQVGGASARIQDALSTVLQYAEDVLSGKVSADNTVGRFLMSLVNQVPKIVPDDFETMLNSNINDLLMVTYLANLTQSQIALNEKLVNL
UniProt O15228: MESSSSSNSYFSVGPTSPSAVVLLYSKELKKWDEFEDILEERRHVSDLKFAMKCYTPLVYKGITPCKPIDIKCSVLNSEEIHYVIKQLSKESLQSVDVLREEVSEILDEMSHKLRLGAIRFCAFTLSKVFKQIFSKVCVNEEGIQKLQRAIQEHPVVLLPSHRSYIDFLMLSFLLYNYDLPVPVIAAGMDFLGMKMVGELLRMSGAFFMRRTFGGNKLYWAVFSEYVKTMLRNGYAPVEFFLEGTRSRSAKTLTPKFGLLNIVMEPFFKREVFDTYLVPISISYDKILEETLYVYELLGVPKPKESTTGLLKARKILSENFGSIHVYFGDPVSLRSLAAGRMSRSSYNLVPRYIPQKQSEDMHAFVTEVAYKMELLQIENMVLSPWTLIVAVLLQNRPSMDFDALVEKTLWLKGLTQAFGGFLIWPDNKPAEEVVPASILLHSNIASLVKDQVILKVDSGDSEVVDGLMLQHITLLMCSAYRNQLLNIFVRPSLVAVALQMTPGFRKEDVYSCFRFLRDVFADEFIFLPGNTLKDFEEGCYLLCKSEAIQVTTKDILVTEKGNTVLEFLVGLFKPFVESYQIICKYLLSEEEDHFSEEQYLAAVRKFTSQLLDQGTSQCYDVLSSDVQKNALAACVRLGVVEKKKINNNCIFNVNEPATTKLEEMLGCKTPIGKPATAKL
UniProt O00429, whole entry, looked up: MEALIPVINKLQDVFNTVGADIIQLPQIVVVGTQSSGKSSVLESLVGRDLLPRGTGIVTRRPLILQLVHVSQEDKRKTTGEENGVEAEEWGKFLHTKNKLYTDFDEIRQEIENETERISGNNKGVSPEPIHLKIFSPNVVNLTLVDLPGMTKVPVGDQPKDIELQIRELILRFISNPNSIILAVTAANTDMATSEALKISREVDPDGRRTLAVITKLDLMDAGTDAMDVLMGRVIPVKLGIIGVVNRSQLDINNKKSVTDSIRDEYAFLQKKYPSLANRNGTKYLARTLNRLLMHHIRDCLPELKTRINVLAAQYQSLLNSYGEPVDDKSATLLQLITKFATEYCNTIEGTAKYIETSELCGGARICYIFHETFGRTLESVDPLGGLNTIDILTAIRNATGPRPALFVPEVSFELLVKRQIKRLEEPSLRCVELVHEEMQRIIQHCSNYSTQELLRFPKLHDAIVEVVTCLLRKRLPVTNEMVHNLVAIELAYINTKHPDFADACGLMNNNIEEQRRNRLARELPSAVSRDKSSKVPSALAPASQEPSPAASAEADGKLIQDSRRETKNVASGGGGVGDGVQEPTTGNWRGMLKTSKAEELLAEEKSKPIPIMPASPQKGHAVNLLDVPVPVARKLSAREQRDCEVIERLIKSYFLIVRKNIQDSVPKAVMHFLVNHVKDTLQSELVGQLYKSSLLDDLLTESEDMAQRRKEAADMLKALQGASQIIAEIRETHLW
UniProt O00151: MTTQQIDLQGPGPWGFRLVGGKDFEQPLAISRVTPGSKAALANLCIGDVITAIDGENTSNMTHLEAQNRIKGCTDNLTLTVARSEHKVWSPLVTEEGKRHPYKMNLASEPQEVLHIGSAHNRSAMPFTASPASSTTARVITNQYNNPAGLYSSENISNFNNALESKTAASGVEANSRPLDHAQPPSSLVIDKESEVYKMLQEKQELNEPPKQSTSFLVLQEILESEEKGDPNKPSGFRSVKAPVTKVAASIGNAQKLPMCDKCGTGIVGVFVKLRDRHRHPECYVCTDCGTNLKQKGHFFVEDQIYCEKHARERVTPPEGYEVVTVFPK
UniProt O14654: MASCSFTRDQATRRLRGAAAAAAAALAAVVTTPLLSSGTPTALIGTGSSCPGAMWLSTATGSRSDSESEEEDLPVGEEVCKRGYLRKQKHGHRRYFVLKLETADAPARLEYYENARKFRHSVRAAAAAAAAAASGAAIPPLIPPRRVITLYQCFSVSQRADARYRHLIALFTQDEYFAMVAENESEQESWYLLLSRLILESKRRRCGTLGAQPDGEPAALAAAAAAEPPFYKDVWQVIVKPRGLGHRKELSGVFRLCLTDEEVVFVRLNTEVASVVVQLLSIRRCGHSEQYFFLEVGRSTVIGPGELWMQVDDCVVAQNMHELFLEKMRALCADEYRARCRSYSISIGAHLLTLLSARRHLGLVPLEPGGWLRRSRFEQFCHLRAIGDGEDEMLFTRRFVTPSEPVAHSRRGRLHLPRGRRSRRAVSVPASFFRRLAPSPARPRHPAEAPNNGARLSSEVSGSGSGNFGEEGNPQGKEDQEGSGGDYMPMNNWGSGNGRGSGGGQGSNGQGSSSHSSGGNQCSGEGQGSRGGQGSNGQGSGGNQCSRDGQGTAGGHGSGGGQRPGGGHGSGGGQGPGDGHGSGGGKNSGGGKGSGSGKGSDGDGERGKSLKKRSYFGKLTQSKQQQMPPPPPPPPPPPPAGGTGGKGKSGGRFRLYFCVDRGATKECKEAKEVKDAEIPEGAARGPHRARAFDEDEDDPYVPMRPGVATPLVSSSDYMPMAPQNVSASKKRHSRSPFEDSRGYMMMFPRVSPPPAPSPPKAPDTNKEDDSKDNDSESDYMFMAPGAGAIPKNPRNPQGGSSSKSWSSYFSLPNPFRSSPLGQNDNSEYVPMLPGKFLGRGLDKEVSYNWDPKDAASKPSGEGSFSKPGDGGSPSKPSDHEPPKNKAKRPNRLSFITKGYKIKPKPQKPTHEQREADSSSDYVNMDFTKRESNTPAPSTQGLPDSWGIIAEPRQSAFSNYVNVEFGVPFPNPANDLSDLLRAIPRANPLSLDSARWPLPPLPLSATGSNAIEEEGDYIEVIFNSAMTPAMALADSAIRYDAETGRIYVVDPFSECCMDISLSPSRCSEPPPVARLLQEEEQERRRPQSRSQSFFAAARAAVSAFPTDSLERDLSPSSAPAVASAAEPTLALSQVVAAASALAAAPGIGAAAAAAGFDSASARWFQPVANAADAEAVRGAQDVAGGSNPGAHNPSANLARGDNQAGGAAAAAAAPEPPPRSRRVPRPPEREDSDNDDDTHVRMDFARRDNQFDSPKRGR
UniProt O14980, whole entry, looked up: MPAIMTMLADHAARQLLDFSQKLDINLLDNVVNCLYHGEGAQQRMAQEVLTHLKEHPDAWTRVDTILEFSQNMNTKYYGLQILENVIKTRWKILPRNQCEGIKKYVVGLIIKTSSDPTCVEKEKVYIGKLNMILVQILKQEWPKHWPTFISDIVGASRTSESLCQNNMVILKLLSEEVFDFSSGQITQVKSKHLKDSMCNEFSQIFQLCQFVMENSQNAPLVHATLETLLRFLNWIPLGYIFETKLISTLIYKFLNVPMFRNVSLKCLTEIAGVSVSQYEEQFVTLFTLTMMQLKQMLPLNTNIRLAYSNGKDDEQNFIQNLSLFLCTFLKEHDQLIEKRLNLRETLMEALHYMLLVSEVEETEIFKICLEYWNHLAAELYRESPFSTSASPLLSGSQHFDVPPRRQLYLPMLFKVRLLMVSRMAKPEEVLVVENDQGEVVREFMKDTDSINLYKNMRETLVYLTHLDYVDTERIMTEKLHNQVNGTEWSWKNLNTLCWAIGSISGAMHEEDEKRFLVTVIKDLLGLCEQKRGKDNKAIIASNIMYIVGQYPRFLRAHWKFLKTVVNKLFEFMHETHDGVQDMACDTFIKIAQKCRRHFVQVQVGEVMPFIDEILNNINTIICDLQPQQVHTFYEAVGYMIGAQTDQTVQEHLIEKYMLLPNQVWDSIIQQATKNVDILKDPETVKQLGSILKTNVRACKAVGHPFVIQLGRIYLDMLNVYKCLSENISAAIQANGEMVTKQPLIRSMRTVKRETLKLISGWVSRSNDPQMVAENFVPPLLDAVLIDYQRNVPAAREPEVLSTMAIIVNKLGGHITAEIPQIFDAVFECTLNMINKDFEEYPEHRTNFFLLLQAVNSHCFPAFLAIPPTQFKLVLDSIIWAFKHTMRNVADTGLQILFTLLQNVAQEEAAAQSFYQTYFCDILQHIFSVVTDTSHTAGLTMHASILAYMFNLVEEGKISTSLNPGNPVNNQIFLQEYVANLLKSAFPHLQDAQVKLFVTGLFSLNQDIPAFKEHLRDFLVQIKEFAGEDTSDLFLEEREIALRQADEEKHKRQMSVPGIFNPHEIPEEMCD
UniProt O15382: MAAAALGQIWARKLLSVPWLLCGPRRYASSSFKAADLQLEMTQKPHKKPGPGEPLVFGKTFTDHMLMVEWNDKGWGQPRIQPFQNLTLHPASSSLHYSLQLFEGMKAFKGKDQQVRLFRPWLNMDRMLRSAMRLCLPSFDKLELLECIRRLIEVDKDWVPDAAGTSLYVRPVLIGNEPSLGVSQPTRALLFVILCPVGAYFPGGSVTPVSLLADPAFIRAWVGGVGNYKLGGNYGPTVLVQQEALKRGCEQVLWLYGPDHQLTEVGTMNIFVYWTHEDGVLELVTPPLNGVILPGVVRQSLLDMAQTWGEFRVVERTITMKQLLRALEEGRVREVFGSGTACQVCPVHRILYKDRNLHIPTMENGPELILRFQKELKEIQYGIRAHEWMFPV
UniProt O14979: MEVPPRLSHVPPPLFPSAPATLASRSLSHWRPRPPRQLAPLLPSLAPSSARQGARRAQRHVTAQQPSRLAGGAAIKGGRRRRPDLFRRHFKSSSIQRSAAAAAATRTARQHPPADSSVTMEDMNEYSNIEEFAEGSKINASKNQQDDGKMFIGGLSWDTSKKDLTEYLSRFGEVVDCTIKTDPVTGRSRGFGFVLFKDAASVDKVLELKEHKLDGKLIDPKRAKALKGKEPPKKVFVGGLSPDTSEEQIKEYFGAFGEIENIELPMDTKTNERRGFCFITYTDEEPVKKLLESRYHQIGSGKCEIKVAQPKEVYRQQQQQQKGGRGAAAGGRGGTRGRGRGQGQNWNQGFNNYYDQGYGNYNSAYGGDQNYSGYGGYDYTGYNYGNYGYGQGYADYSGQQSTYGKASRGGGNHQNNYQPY
UniProt O00232: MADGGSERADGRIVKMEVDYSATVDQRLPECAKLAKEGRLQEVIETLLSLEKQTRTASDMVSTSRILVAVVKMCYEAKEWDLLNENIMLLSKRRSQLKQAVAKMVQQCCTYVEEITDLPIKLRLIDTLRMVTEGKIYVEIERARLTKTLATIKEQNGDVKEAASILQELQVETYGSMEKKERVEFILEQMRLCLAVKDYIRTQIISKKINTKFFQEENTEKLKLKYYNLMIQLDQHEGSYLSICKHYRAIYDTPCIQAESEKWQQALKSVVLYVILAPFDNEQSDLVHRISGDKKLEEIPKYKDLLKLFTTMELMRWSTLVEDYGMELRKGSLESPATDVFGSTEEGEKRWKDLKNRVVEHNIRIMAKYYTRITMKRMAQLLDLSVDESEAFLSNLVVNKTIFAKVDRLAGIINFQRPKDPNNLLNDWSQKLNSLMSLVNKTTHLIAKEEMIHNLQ

This list holds what a sample rich in targets with a hit left over. This is a noisy data set. This is a selection; strong and weak results do not stand in their true shares.

Compound in this assay: COC(=O)/C=C/c1ccccc1 [methyl cinnamate]
Kind of assay: log2 ratio of iodoacetamide-alkyne labeling of the cysteine site, DMSO over compound (competition); higher = stronger covalent engagement of the cysteine by the compound, active = 1 or more. As to conditions: 500 µM; treatment time 1 h; system: HEK293T cell lysate. In short, it runs like this:
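Electrophile (500 µM) or vehicle was added to HEK293T lysate (2 mg/mL) for 1 h at ambient temperature before iodoacetamide alkyne labelling (1 h) and click coupling to sCIP-TMT reagents. After pooling, overnight trypsin digestion at 37 °C, streptavidin enrichment and acid elution, peptides were measured by Orbitrap Eclipse LC-MS/MS with FAIMS and quantified in FragPipe. Each cysteine's log2 competition ratio compares mean control-channel with mean compound-channel reporter intensity, control over compound. Data came from duplicate channels across three replicates, excluding cysteines quantified in only one replicate.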
On to TNRC18 C2288 (UniProt O15417), for which the “log2 ratio of iodoacetamide-alkyne labeling” value (“log2 ratio” below) was inactive: 0.138. For the target IGF2BP3 C194 (UniProt O00425), the “log2 ratio” value was inactive: 0.538. Regarding NKRF C246 (UniProt O15226), the “log2 ratio” value is inactive: 0.255. Next, TRIM24 C629 (UniProt O15164): inactive: 0.343. As for DHX15 C174 (UniProt O43143), the “log2 ratio” value is inactive: -0.12. As to NVL C626 (UniProt O15381), the “log2 ratio” value is inactive: 0.0717. Take EIF3F C256 (UniProt O00303): the “log2 ratio” value is inactive: 0.0642. Next, PFAS C697 (UniProt O15067): inactive: 0.648; GNPAT C73 (UniProt O15228): inactive: 0.342. Take RNMT C50 (UniProt O43148): the “log2 ratio” value is inactive: 0.0342. The result for HGS C190 (UniProt O14964) reads inactive: 0.00595; that for GAK C190 (UniProt O14976), inactive: 0.0641; that for ARHGEF11 C1500 (UniProt O15085), inactive: 0.178. Next, DNM1L C505 (UniProt O00429): inactive: -0.141; UniProt O00567_C142: inactive: 0.174; HAT1 C120 (UniProt O14929): inactive: 0.402. Next, ZZEF1 C162 (UniProt O43149): inactive: 0.225; DVL2 C80 (UniProt O14641): inactive: -0.0922. With PDLIM1 C73 (UniProt O00151), the “log2 ratio” value is inactive: 0.197. Next, PFAS C108 (UniProt O15067): inactive: 0.0473; ARHGEF11 C1166 (UniProt O15085): inactive: 0.189; UniProt O00148_C197: inactive: -0.001. Next, UniProt O00567_C472: inactive: 0.305.

As for IRS4 C522 (UniProt O14654), the “log2 ratio” value is inactive: 0.234. As for XPO1 C119 (UniProt O14980), the “log2 ratio” value is inactive: 0.373. Consider GNPAT C650 (UniProt O15228), for which the “log2 ratio” value is inactive: 0.421. Turning to PHGDH C116 (UniProt O43175), the “log2 ratio” value is inactive: -0.0364. Next, BCAT2 C342 (UniProt O15382): inactive: -0.00336; KMT2D C58 (UniProt O14686): inactive: 0.276. Turning to UniProt O14979_C277, the “log2 ratio” value is inactive: -0.075. For PSMD12 C31 (UniProt O00232), the “log2 ratio” value was inactive: -0.219. In the case of ANKRD28 C701 (UniProt O15084), the “log2 ratio” value is inactive: 0.18. The result for NKRF C37 (UniProt O15226) reads inactive: 0.103; that for PHGDH C111 (UniProt O43175), inactive: -0.0364. The result for TRAFD1 C482 (UniProt O14545) reads inactive: 0.66; that for DNM1L C367 (UniProt O00429), inactive: 0.0777. The result for POLRMT C726 (UniProt O00411) reads inactive: 0.342; that for PGRMC2 C159 (UniProt O15173), inactive: 0.325.
